These are yes or no findings as the source states them, for the method shown. In cells and extracts the contact can be indirect. Binding can be weak; no strength is given. For part of these data: Where a sequence is shown, tags or fusion partners need not be part of it. Each block holds one substance with its values, some of them ahead of it.
Assays:
Myc-Ocln (mouse) = Myc-Ocln (mouse) (UniProt Q61146); assay: co-IP; HEK-293 cells transfected with Myc-Ocln and Flag-DSP or Myc-DSP and Flag-Ocln (and fragments), 48 h; lysis in 50 mM Tris-HCl pH 7.4, 150 mM NaCl, 1 mM EDTA, 1% Triton X-100; precipitated with Myc antibody; blots with anti-Myc, anti-DSP or anti-Ocln
Myc-DSP (mouse) = Myc-DSP (mouse) (UniProt P97399); assay: as above
[1] = target: T1, GST-DSP fusion protein (recombinant dentin sialoprotein 1–458) (mouse) (UniProt P97399); assay: pull-down; GST-DSP fusion protein incubated with 1 ml lysate of mouse odontoblast-like cells (MO-6G3) in 50 mM Tris-HCl pH 7.4, 150 mM NaCl, Triton X100 overnight at 4 °C; glutathione agarose beads; eluted with reduced glutathione; Western blots with antibodies to 110 candidates; only the target purified
T1 sequence: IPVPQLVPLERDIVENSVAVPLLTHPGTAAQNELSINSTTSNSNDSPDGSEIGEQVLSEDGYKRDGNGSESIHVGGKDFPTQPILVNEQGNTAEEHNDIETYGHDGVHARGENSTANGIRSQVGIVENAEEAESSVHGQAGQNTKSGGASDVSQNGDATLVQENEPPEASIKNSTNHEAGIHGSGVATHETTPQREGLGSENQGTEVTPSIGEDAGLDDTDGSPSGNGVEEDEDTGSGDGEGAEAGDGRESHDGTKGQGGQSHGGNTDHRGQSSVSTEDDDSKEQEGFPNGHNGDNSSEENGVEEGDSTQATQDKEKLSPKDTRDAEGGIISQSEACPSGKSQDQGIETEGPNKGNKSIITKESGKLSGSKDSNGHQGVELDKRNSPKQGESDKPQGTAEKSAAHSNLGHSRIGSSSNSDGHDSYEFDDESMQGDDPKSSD

The chains behind the UniProt entries cited, without tags or fusion partners.
UniProt Q61146: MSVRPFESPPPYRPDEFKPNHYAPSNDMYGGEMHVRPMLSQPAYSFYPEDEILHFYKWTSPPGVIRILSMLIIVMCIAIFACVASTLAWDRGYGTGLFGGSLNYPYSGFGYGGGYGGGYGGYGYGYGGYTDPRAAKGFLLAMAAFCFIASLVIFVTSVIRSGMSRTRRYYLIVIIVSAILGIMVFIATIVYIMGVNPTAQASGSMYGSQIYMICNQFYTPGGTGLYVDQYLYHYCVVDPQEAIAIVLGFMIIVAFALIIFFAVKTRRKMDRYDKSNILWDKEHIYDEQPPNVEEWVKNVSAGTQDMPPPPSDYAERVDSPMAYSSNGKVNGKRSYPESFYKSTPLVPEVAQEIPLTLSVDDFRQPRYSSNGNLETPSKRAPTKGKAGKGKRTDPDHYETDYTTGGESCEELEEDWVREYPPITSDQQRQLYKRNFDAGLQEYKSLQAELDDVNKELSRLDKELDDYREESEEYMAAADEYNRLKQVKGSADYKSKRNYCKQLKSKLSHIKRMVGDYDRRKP

- binding (Myc-Ocln (mouse)): binds
Substance: Flag-DSP (from UniProt P97399)

- binding (Myc-DSP (mouse)): binds
Substance: Flag-Ocln (from UniProt Q61146 1-521) (receptor)

- binding [1]: binds
Substance: collagen IV
